Data reported in the supplement of paper PMC6411743.
± gives the standard deviation of the averaged measurements. Some of the results follow.

Assays:
Assay in all cases: NP40-soluble protein abundance relative to vehicle (solubility fold change) (ratio); higher = more soluble protein in presence of GTP
[1] = biological target: T1, CDKAL1 (UniProt Q5VV42)
T1 sequence (whole entry): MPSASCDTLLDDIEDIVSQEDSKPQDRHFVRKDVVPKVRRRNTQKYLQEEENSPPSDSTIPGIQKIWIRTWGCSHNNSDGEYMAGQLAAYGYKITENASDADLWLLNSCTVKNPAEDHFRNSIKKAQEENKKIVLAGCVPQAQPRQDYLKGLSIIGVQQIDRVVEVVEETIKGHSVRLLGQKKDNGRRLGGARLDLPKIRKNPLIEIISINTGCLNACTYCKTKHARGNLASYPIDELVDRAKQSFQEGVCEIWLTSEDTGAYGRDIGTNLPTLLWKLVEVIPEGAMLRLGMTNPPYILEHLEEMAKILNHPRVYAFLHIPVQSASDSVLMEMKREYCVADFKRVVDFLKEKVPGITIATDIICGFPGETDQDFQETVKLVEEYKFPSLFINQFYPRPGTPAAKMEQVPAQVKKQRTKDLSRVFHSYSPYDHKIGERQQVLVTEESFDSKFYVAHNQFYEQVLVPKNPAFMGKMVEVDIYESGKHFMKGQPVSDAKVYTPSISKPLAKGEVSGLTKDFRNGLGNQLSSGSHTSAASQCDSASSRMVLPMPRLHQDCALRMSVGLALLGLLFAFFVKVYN
In short: (§1)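 Eight concentrations, 0.1 to 10 mM, were tested on Jurkat crude lysate for 10 min at room temperature and then 3 min at 37 °C, in three independent experiments. The lysate was solubilised with 0.8% NP40 and benzonase, ultracentrifuged, and the supernatant TMT-labelled for LC-MS/MS. Each value is the fold change against the detergent-processed vehicle in its own replicate, from vsn-normalised intensities.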

[2] = biological target: T2, ISCA2 (UniProt Q86U28)
T2 sequence (whole entry): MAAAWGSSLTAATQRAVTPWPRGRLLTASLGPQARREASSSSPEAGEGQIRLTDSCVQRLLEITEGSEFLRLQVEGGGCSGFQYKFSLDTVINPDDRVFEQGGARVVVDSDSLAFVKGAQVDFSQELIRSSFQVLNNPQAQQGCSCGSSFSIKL
In short: as §1

[3] = biological target: T3, NCR3LG1 (UniProt Q68D85)
T3 sequence (whole entry): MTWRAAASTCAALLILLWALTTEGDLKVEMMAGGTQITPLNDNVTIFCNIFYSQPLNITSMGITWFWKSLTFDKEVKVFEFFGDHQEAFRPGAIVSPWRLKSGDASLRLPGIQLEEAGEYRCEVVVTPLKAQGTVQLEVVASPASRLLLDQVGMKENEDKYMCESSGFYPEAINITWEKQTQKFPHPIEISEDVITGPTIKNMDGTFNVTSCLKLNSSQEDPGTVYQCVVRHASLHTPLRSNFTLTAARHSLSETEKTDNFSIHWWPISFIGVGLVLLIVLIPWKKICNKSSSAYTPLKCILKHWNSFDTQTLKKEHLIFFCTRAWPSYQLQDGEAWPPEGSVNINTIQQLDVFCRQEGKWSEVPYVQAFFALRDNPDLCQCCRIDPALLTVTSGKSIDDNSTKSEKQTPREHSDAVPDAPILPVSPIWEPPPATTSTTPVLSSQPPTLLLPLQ
In short: as §1

[4] = biological target: T4, PRPF38B (UniProt Q5VTL8)
T4 sequence (whole entry): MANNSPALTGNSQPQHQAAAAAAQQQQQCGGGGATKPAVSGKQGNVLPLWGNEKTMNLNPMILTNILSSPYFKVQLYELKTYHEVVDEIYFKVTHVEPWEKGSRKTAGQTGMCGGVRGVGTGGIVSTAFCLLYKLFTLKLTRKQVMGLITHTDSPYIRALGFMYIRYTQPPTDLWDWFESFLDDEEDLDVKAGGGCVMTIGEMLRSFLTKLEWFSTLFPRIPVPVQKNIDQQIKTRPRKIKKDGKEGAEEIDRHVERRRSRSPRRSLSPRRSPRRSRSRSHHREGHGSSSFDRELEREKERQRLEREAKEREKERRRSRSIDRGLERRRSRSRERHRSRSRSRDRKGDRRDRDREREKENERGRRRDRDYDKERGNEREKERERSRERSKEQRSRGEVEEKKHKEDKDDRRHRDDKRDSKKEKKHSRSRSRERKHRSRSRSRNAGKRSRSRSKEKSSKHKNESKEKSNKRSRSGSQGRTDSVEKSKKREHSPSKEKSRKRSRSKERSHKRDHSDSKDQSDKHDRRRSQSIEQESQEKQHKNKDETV
In short: as §1

[5] = biological target: T5, Q5TBI2 and related entries (UniProt Q8NDD1)
T5 sequence (whole entry): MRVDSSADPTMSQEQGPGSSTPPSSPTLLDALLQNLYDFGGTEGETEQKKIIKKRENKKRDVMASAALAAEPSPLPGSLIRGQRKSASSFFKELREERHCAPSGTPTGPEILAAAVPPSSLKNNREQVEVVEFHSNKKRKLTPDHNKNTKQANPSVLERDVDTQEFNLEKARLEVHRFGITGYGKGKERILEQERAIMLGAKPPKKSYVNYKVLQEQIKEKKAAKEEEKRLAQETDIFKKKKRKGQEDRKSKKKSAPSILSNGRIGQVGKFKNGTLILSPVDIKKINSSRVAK
In short: as §1

Nc1nc2c(ncn2[C@@H]2O[C@H](COP(=O)(O)OP(=O)(O)OP(=O)(O)O)[C@@H](O)[C@H]2O)c(=O)[nH]1 [guanosine triphosphate]
NP40-soluble protein abundance ([1]; concentration: 0.1mM): 1.03 ± 0.016
NP40-soluble protein abundance ([1]; concentration: 0.5mM): 1.05 ± 0.047
NP40-soluble protein abundance ([1]; concentration: 1mM): 1.01 ± 0.05
NP40-soluble protein abundance ([1]; concentration: 2mM): 1.03 ± 0.035
NP40-soluble protein abundance ([1]; concentration: 4mM): 1.02 ± 0.022
NP40-soluble protein abundance ([1]; concentration: 6mM): 1.04 ± 0.049
NP40-soluble protein abundance ([1]; concentration: 8mM): 1.01 ± 0.029
NP40-soluble protein abundance ([1]; concentration: 10mM): 1.02 ± 0.04
NP40-soluble protein abundance ([2]; concentration: 0.1mM): 1.05 ± 0.027
NP40-soluble protein abundance ([2]; concentration: 0.5mM): 0.933 ± 0.039
NP40-soluble protein abundance ([2]; concentration: 1mM): 0.932 ± 0.052
NP40-soluble protein abundance ([2]; concentration: 2mM): 0.965 ± 0.097
NP40-soluble protein abundance ([2]; concentration: 4mM): 0.915 ± 0.086
NP40-soluble protein abundance ([2]; concentration: 6mM): 0.911 ± 0.071
NP40-soluble protein abundance ([2]; concentration: 8mM): 0.861 ± 0.049
NP40-soluble protein abundance ([2]; concentration: 10mM): 0.902 ± 0.064
NP40-soluble protein abundance ([3]; concentration: 0.1mM): 1.11 ± 0.15
NP40-soluble protein abundance ([3]; concentration: 0.5mM): 1.22 ± 0.3
NP40-soluble protein abundance ([3]; concentration: 1mM): 1.17 ± 0.14
NP40-soluble protein abundance ([3]; concentration: 2mM): 1.23 ± 0.26
NP40-soluble protein abundance ([3]; concentration: 4mM): 1.15 ± 0.2
NP40-soluble protein abundance ([3]; concentration: 6mM): 1.22 ± 0.29
NP40-soluble protein abundance ([3]; concentration: 8mM): 1.15 ± 0.11
NP40-soluble protein abundance ([3]; concentration: 10mM): 0.978 ± 0.12
NP40-soluble protein abundance ([4]; concentration: 0.1mM): 1.07 ± 0.11
NP40-soluble protein abundance ([4]; concentration: 0.5mM): 1.09 ± 0.065
NP40-soluble protein abundance ([4]; concentration: 1mM): 1.13 ± 0.047
NP40-soluble protein abundance ([4]; concentration: 2mM): 0.998 ± 0.083
NP40-soluble protein abundance ([4]; concentration: 4mM): 1.02 ± 0.093
NP40-soluble protein abundance ([4]; concentration: 6mM): 0.985 ± 0.08
NP40-soluble protein abundance ([4]; concentration: 8mM): 1.16 ± 0.083
NP40-soluble protein abundance ([4]; concentration: 10mM): 1.07 ± 0.074
NP40-soluble protein abundance ([5]; concentration: 0.1mM): 0.993 ± 0.035
NP40-soluble protein abundance ([5]; concentration: 0.5mM): 0.966 ± 0.023
NP40-soluble protein abundance ([5]; concentration: 1mM): 1.07 ± 0.057
NP40-soluble protein abundance ([5]; concentration: 2mM): 1.18 ± 0.05
